The record followed here is PMC9977783, “Ligand-specific changes in conformational flexibility mediate long-range allostery in the lac repressor” (Nature Communications, 2021).

Protein sequences, listed by entry. Tags and fused reporters are not part of them. Residues count along the entry.
UniProt P03023, 1-331: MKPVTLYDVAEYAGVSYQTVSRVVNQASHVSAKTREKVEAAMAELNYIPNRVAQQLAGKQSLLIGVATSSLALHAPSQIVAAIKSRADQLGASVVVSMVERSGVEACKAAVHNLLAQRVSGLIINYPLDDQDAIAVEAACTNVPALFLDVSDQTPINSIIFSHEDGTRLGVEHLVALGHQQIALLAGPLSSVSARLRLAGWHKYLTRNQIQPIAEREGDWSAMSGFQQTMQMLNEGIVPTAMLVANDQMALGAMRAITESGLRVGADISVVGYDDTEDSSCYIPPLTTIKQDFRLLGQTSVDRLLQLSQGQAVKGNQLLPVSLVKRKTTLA

Data set [1] addresses LacI dimeric (lac repressor, tetramerization domain removed) (Escherichia coli) (UniProt P03023). Nature of the data set: BLI. To be noted: IPTG, LacI 0-40 nM, BLI: PBS with 0.2% BSA, 0.05% Tween-20, pH 8.0, room temperature, global 1:1 kinetic fit, recombinant protein, residues 1-331, label: 5'-biotin on forward strand.
Data set [2] has the same target. Nature of the data set: HDX/MS. To be noted: IPTG, expected about 50% DNA-bound; HDX/MS: 50 mM MOPS, 200 mM NaCl, 0.5 mM TCEP, pH 7.0, equilibrated at 4 C; recombinant protein; residues 1-331.

For some assays here: A negative result means that nothing was seen under these conditions. For some assays here: Construct, isoform or probe ends are uncertain for at least one entry. For some assays here: Weaker means in comparison with the reference protein, sequence or condition of that experiment.

With “AGTAGTGGAATTGTGAGCGGATAACAATTGACATTGTGAGCGGATAACAAGATACTGAGCACATCAGC (double strand) [Olac (LacO1 natural operator, BLI)]”, the binding result in data set [1] is reported as “no binding”. “AGTAGTGGAATTGTGAGCGGATAACAATTGACATTGTGAGCGGATAACAAGATACTGAGCACATCAGC (double strand) [Olac (LacO1, 68 bp, HDX/MS)]”: the binding result in data set [2] is reported as “binds more weakly”.
